US20240148745A1, “COMPOUNDS FOR USE IN PROGRESSIVE MULTIPLE SCLEROSIS” (FONDAZIONE CENTRO SAN RAFFAELE, priority 2021, published 2024)
For some of these results: For at least one compound, name, drawing or mass did not settle the structure. Some compounds share one wording; it may come from a single statement. Some results were stated once for a whole list of compounds, not compound by compound.

How the values were obtained:
[1] = system: mouse cortical neurons; experiment: Morphological integrity evaluation, NMDA 8 μM (MAP2 neurite length and branching); format: cell-based; conditions: 3 h pre-treatment, NMDA 8 μM 24 h; Z>0.5 criteria
Experimental: Apart of viability/metabolic readout in NMDA-mediated neurotoxicity assay, a neuronal structural integrity was evaluated by MAP2 staining. Mouse cortical neurons (14 DIV) cultured in MW96 plates were fixed with 4% paraformaldehyde (PFA). Fixed cells were incubated with blocking solution (PBS 1×, donkey serum 5%, Triton 0.1%) for 1-hour, primary antibody (rabbit α-MAP2, 1:250, Millipore) was applied in the same solution overnight at +4° C. […] Nuclei were stained with 4′-6-diamidino-2-phenylindole (DAPI, Roche). Microscopy was performed using ArrayScan™XTI (ThermoFisher) imaging platform. 15 images per well were acquired and analyzed by CellProfiler. Total neurite length and the total number of non-trunk branches were analyzed. Total neurite length and the total number of branching were evaluated from 15 images/well, each compound or control was tested in triplicates. The total neurite length and total number of branches were converted to a standardized Z-score using formula: Xij=((Xij−μ)/σ), where xij is the raw measurement of the compound located in well (i, j), and μ and σ are, respectively, the mean and the standard deviation of all measurements of the plate.^31
The morphological integrity of mouse cortical neurons upon chronic 24 h NMDA (8 μM) exposure with compounds pre-treatment (3 h) in preventive regimen was evaluated. […]

[2] = system: murine cortical neurons (14 DIV); experiment: NMDA-mediated neuroprotective assay (CCK8 viability); format: cell-based, mouse; conditions: 1 μM, 24 h pre-treatment, NMDA 8 μM 24 h
Experimental: To assess neuroprotective activity of 160 selected non-toxic compounds on primary murine cortical neurons, obtained as described in the previous paragraph, ([…]), cultures were pre-treated with 1 μM compounds for either 3 or 24 hours, followed by 24 hours chronic stimulation with NMDA (8 μM) to induce neuronal damage. Each test plate included: a negative control (untreated), vehicle-treated control (0.02% vol/vol DMSO), a positive neurotoxic control—staurosporine 0.1 μM, a stressor—NMDA 8 μM, a positive neuroprotective control—NAC 300 μM, and a combination of stressor +neuroprotective molecule (NMDA+NAC). Cell viability was measured with Cell Counting Kit-8 assay compared to NMDA-treated control.
The potential neuroprotective activity of 160 selected non-toxic compounds was evaluated on murine cortical neurons (14 DIV) with either 3 h (FIG. 13) or 24 h compounds pre-treatment (FIG. 14). In assay with 3 h pre-treatment, 17 compounds were identified as potential NMDA-neuroprotective hits (marked with black asterisk in FIG. 13, stat. significant at p<0.05, Kruskal-Wallis test with post-hoc two-stage linear step-up procedure of Benjamini, Krieger and Yekutieli multiple comparison correction).

[3] = system: rat oligodendrocyte progenitor CG4 line; experiment: Differentiation assay on rat oligodendrocyte progenitor CG4 line (HCS, mCherry+); format: cell-based; conditions: secondary screen of 49 selected compounds, 1 μM, 5 days
From the text: Primary validation on CG4 line toxicity and differentiation. An innovative OPC line was developed for fast and reliable high content screening (HCS) of small compounds inducing oligodendrocyte differentiation. The line was genetically engineered by lentiviral transduction of rat CG4 cells (PubMed=1613821; DOI=10.1002/jnr.490310125; Louis J. C., Magal E., Muir D., Manthorpe M., Varon S.; CG-4, a new bipotential glial cell line from rat brain, is capable of differentiating in vitro into either mature oligodendrocytes or type-2 astrocytes. J. Neurosci. Res. 31:193-204(1992) to express mCherry fluorescent reporter (Evercooren, Anne & Avellana-Adalid, V. & Vitry, Sandrine & Nait-Oumesmar, Brahim & Lachapelle, Francois. (1997). Expansion of Oligodendrocyte Progenitors for Myelin Repair. 10.1007/978-1-4615-5949-8_21) in mature oligodendrocytes only, and EGFP at all stage of the oligodendroglial lineage: both the generation of mature oligodendrocytes (wmNl-mCherry) and the morphological changes associated with differentiation (CMV-EGFP) can be therefore monitored in a single assay. mCherry expression occurred only in O4+/GalC+ differentiated oligodendrocytes and GFP was ubiquitously expressed at all developmental stages. The line so obtained was validated using compounds with well-established effects on oligodendrocyte differentiation (cAMP and T3). Cell-based assay was standardized on the HCS platform (ArrayScanXTI, Brain and Spine Institute (Paris), validating the pro-differentiation effects of clemastine^27 and 9cis-retinoic acid.^28 For HCS validation of 274 compounds identified through in silico screen, double-fluo CG4 line cells were plated in 96 well-plates, 6500 cells/cm^2 and left for 24 h in proliferation. The other day, compounds were added (1 μM) for next 5 days of differentiation, with ⅔ medium changed after 3 days. 9-cis Retinoic Acid (9cis-RA; […]) served as a positive control, negative controls were basal (N1) medium and vehicle (basal+0.1% DMSO). Each compound was tested in triplicate and were imaged with ArrayScanXTI system (35 fields/well) after 5 days of differentiation.
FIG. 4 provides a schematic representation of High Content Screening (HCS) validation of the 274 compounds identified through in silico screening using CG4 line. […] In addition, the whole short list of 160 non-toxic compounds were screened using the CG4 high content phenotypic assay to further confirm the data from primary screening and to potentially select additional compounds with pro-myelinating activities. From this screening of the short list, 49 hit compounds were identified that increase differentiation either of CG4 cells or primary OPCs (FIG. 6).

[4] = system: H9-derived human neural stem cells; experiment: Neurotoxic or regenerative effect screening (CellTiter-Glo); format: cell-based; conditions: 10 μM, three independent screenings
Experimental: H9-derived human neural stem cells (H9 hNSCs, Gibco) were cultured according to the manufacturer's instructions. Briefly, H9 hNSCs were expanded and subsequently differentiated in neurobasal medium, 2% B27, 1% Glutamax, and 1% penicillin/streptomycin, supplemented with 10 ng/ml BDNF (Peprotech), and 2 ng/ml recombinant human GDNF (Peprotech). After 7 days, 500 μM of db-cAMP (N6,2′-O-dibutyryladenosine 3′,5′-cyclic monophosphate, Sigma) was added.
The metabolic activity/viability of selected compounds (32 “Front Runners”+24 compounds from the “Short list”) was evaluated by CellTiter-Glo® Luminescent Cell Viability Assay. The primary screen of Front Runner List (32 compounds)+24 compounds from Short List) on H9-derived human neurons was performed at 10 μM concentration. The validation of hits from primary screen on H9-derived human neurons was performed at 10 μM concentration.
32 Front Runners were tested at 10 μM on H9-derived human neuronal cultures and viability was evaluated by CellTiter-Glo® Luminescent Cell Viability Assay.

[5] = system: primary murine spinal cord culture; experiment: Myelinating cell cultures from primary murine spinal cord; format: cell-based, mouse; conditions: 1 μM, Late treatment DIV14-DIV21
Experimental: Single cell suspensions are prepared from spinal cord of mouse embryos (E13) (adapted from Thomson, 2008) and 1.5×10^5 cells/well were plated into 96 well plates. Over time, these cultures mature and form axons, which later myelinate. Using spinal cord tissue facilitates the quantification of mature MBP+ oligodendrocytes and newly formed myelin by in-house high-content imaging system (Operetta High Content Imaging System, Perkin Elmer) with a 20× lens. From each well, 25 fields in a 5×5 matrix were scanned. Thirty-two “Front Runners” compounds were tested in replicates of five at 1 μM/DMSO, while T3, benzotropine and clemastine were used as positive controls, DMSO as negative/solvent control. Two experimental paradigms were applied: “Early treatment”: exposure to experimental agent from DIV7 to DIV14; “Late treatment”: exposure to experimental agent from DIV14-DIV21. On DIV21, cultures were fixed and stained (myelin: MBP, axons: NF200; nuclei: Hoechst). Imaging data were analysed using CellProfiler and in-house generated analysis pipeline.
Thirty-two “Front Runners” compounds were tested in replicates of five at 1 μM/DMSO, while T3, benztropine and clemastine were used as positive controls, DMSO as negative/solvent control. Two experimental paradigms were applied: “Early treatment”: exposure to experimental agent from DIV7 to DIV14; “Late treatment”: exposure to experimental agent from DIV14-DIV21. […] In “Late treatment” paradigm in myelin area evaluation were identified Vanoxerine, Roxadustat, Tamibarotene, Drinabant, Progesterone, Saracatinib. In quantification of myelinated axons were identified Vanoxerine, Drinabant, Roxadustat.

[6] = system: human iPS-derived neuroprecursors; experiment: Differentiation of human iPS-derived neuroprecursors into MBP+ oligodendrocytes; format: cell-based; conditions: 1 μM in minimal medium, p<0.05
From the text: NPC bearing a doxycycline inducible polycistronic construct containing SOX10, OLIG2 and NKX6.2^29 in a human safe harbor (passages 10 to 25) were singularized on day −3 by treatment with Accutase and plated on Matrigel-coated 12-well plates at a density of 100.000 cells per well in N2B27-medium containing equal parts of neurobasal (Invitrogen) and DMEM-F12 medium (Invitrogen) with 1:100 B27 supplement lacking vitamin A (Invitrogen), 1:200 N2 supplement (Invitrogen), 1% penicillin/streptomycin/glutamine (PSG), 3 μM CHIR99021 (Axon Medchem), 150 μM ascorbic acid and 0.5 μM SAG. The next day medium was changed to N2B27-medium containing 1 μg/ml doxycycline. On DO medium was changed to glial-induction medium (GIM) consisting of DMEM-F12 with 1:100 B27 supplement lacking vitamin A, 1:200 N2 supplement, 1% PSG, 1 μM SAG, 10 ng/mL NT3 (Peprotech), 10 ng/mL IGF-I (Peprotech), 200 μM AA (Sigma), 1:1000 Trace Elements B (Corning). For full medium conditions 10 ng/ml T3 was added. […] Cells were fixed on D21 and analyzed via immunocytochemistry. […]
Imaging and evaluation. […] Cell numbers were determined by using an ImageJ Macro to count the nuclei whereas MBP positive cells were subsequently counted manually in black and white images. […]

| SMILES | preservation of neurite length and network integrity (branching) [1] | neuroprotective capacity against NMDA-induced excitotoxicity, Z score [2] | CG4 differentiation compared with 9cis-RA positive control [3] | cumulative Z-scores of ATP production/viability [4] | myelin area [5] | quantification of myelinated axons [5] | differentiation into MBP+ oligodendrocytes [6] |
| --- | --- | --- | --- | --- | --- | --- | --- |
| CNC(=O)c1ccc(Nc2ncc(C(F)(F)F)c(NCc3nccnc3N(C)S(C)(=O)=O)n2)cc1 [Defactinib] | preserved both neurite length and the network integrity (branching) |  |  |  |  |  |  |
| CCOC(=O)c1cnc2c(cnn2CC)c1NN=C(C)C [Etazolate] | preserved both neurite length and the network integrity (branching) | > 0.5 | promoting differentiation significantly higher than 9cis-RA positive control |  |  |  |  |
| Cc1[nH]c(/C=C2\C(=O)Nc3ccc(F)cc32)c(C)c1C(=O)NC[C@H](O)CN1CCOCC1 [SU14813] |  |  | promoting differentiation significantly higher than 9cis-RA positive control | potential hits |  |  |  |
| Cc1nc(C(=O)NCC(=O)O)c(O)c2ccc(Oc3ccccc3)cc12 [Roxadustat] |  |  | promoting differentiation significantly higher than 9cis-RA positive control |  | identified | identified | promote significantly (p<0.05) the differentiation into MBP+ oligodendrocytes |
